One molecule from publication PMC6280496 can be followed below.

These are yes or no findings as the source states them, for the method shown. In cells and extracts the contact can be indirect. For some of these results: Binding can be weak; no strength is given.

What all share (test): co-IP; CCA cells lysed in ice-cold IP lysis buffer with protease and phosphatase inhibitors; Dynabeads protein G IP kit; precipitates analysed by western blot
Experiment [1] addresses integrin α6β4 (human (endogenous in CCA cells)).
The target of experiment [2] is integrin αVβ6 (human (endogenous in CCA cells)).
Experiment [3] has as its target integrin α5β1 (human (endogenous in CCA cells)).
For experiment [4], the target named is integrin α6β1 (human (endogenous in CCA cells)).

B1: Tetraspanin 1 (TSPAN1) (protein, UniProt O60635 1-241)
chain: MQCFSFIKTMMILFNLLIFLCGAALLAVGIWVSIDGASFLKIFGPLSSSAMQFVNVGYFLIAAGVVVFALGFLGCYGAKTESKCALVTFFFILLLIFIAEVAAAVVALVYTTMAEHFLTLLVVPAIKKDYGSQEDFTQVWNTTMKGLKCCGFTNYTDFEDSPYFKENSAFPPFCCNDNVTNTANETCTKQKAHDQKVEGCFNQLLYDIRTNAVTVGGVAAGIGGLELAAMIVSMYLYCNLQ
As for B1, the binding result in experiment [1] is listed as “no binding”; in experiment [2], “no binding”; in experiment [3] it was “no binding”; in experiment [4] it was “binds”.
